57 compounds from PubChem BioAssay AID2685 (National Center for Advancing Translational Sciences (NCATS), 2010) can be followed below.

A short description of this assay: qHTS Assay for Lipid Storage Modulators in Drosophila S3 Cells.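 As to cell number change: cells counted by Cell Tracker Red CMTPX staining in the red channel.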 As to conditions: BODIPY lipid droplet fluorescence, 18-24 h; for cell number change: measured here: cell count max response, cells fed with added oleic acid. In short, it runs like this: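 Drosophila S3 cells loaded with oleic acid (400 uM, as added) and compounds at several concentrations; lipid droplets imaged by 488-nm laser-scanning cytometry, 500–530 nm intensity and object ratio to cell channel. Percent activity normalized to 20 uM Triacsin C.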
On the technique in general: In qHTS, concentration-response curves come from the screen itself.

The mark [1] stands for this setting: measured here: lipid fluorescence (Fed channel) AC50, cells fed with added oleic acid.
[2] abbreviates: measured here: cell number channel AC50, cells fed with added oleic acid.

Structures are written as SMILES. The list shows a part of the results. Shown are side measurements of this screen, not its main read-out; they come without a call. The list favours compounds with an active or inconclusive main result. The note in brackets gives the kind of curve behind each potency; many fits are weak.

Usually AC50 stands for the concentration at which the activity in the assay is half-maximal. For the compound `O=C(NC(=S)Nc1ccc2oc(=O)ccc2c1)c1cccc(Cl)c1`, the cell number change came out at 16.1%. The AC50 under setting [1] was 0.731 µM [falling, single point].
`COc1cc(NC(=O)N[C@H](C(=O)O)C(C)C)cc(OC)c1`: the half-maximal activity concentration (AC50) under setting [1] is 1.3 µM [falling, full curve].
For `CC(=O)Nc1ccc(-c2cc(C(=O)O)c3ccc(C)cc3n2)cc1`, the cell number change is -3.93%.
Regarding `COc1ccc(CNc2nc(-c3ccccc3)nn2C(=O)c2cccs2)cc1`, the AC50 is, setting by setting: under setting [2], 0.651 µM [rising, partial curve, poor fit]; under setting [1], 1.84 µM [rising, partial curve].
With `CC(=O)c1cccc(N(CC(=O)NC2CCCCC2)C(=O)Cn2nnc(-c3ccccc3)n2)c1`, the cell number change is -19.2%. Also, the AC50 under setting [2] is 7.31 µM [falling, single point]. Moreover, under setting [1], the AC50 was 0.00411 µM [falling, full curve, poor fit].
Regarding `Cc1ccc(C(=O)NCC(=O)N(C)Cc2cccc(F)c2)s1`, the cell number change turned out to be 150%. The AC50 under setting [2] was 18.4 µM [rising, single point]. Further, under setting [1], the AC50 is 5.17 µM [rising, full curve].
`Cc1ccc(C)c(NC(=O)COC(=O)c2cccc3c2C(=O)c2ccccc2C3=O)c1`: the cell number change stood at 25.8%. Further, the AC50 under setting [1] is 0.82 µM [rising, full curve].
On to `CC(=O)N1CCOc2ccc(S(=O)(=O)N3CCC(C)CC3)cc21`, for which the cell number change amounted to 11.3%. In addition, under setting [1], the half-maximal activity concentration (AC50) was 0.13 µM [falling, full curve, poor fit].
Take `C[C@H](NC(=O)c1nc[nH]c1C(=O)NC1CCN(C(=O)OC(C)(C)C)CC1)C(=O)OC(C)(C)C`: the cell number change was -25.4%. For the same compound, under setting [1], the half-maximal activity concentration (AC50) was 0.82 µM [falling, full curve, poor fit].
In the case of `COc1ccc(CCC(=O)O)c(O)c1`, the cell number change is -15.4%. In addition, the half-maximal activity concentration (AC50) under setting [1] is 3.66 µM [falling, full curve].
As to `O=C(Nc1ccc(N2CCN(c3ncccc3C(F)(F)F)CC2)nc1)c1cccs1`, the cell number change was -53.8%. Besides, the AC50 under setting [2] was 29.1 µM [falling, single point]. Under setting [1], the AC50 is 29.1 µM [falling, single point].
As for `CCc1ccc2[nH]c(=O)c(CN(Cc3ccco3)C(=S)NCC3CCCO3)cc2c1` (centres undefined), the cell number change was found to be 6.66%. In addition, under setting [1], the AC50 was 0.00411 µM [rising, full curve, poor fit].
Turning to `Cc1ccc(S(=O)(=O)N2CCN(C(=O)COC(=O)CSc3ccccc3)CC2)c(C)c1`, the cell number change was -0.962%. Further, the AC50 under setting [1] is 16.4 µM [rising, single point].
Regarding `CCOc1ccc2[nH]c(=O)c(C(c3nnnn3CC3CCCO3)N3CCc4ccccc4C3)cc2c1` (centres undefined), the cell number change turned out to be 18.7%. Moreover, under setting [2], the AC50 was 0.231 µM [rising, full curve, poor fit].
For `O=[N+]([O-])c1cc(S(=O)(=O)N2CCOCC2)ccc1N1CCCC1`, the cell number change was -29.1%. Also, the AC50 under setting [1] was 5.8 µM [falling, full curve].
Regarding `CCOc1nnnc2c1sc1nc(N3CCOCC3)c3c(c12)CCCC3`, the cell number change was 67%. Under setting [2], the AC50 was 2.91 µM [rising, partial curve]. Further, the AC50 under setting [1] is 4.11 µM [rising, partial curve].
`O=C(c1cc(C(=O)N2CCOCC2)c2nc3ccccc3n2c1)c1ccccc1O`: the cell number change was 10.2%. Besides, the AC50 under setting [2] is 0.0116 µM [rising, full curve, poor fit]. In addition, the concentration at half-maximal activity (AC50) under setting [1] is 6.51 µM [rising, single point].
In the case of `CC#CCN1c2ccccc2[C@]23C[C@@H](C(=O)OC)N(C(=O)c4cc(C)oc4C)C2=NC(C(=O)OC)=C(C(=O)OC)[C@H]13`, the cell number change was -71.5%. Besides, the AC50 under setting [2] is 0.82 µM [falling, full curve]. The concentration at half-maximal activity (AC50) under setting [1] is 1.03 µM [falling, full curve].
Consider `CC(NC(=O)Cn1c(=O)oc2cc(S(=O)(=O)N3CCCC3)ccc21)c1ccccc1` (centres undefined), for which the cell number change came out at 46.6%.
Consider `COc1cc(C(=O)Nc2cccc(S(=O)(=O)NCc3ccco3)c2)cc(OC)c1OC`, for which the cell number change was 23.9%. For the same compound, the half-maximal activity concentration (AC50) under setting [1] was 0.259 µM [rising, full curve, poor fit].
For the compound `O=C(COc1cccc(Br)c1)Nc1ccc(N2CCOCC2)cc1N1CCOCC1`, the cell number change was determined as 7.67%. The AC50 under setting [2] was 0.092 µM [falling, full curve]. Besides, the concentration at half-maximal activity (AC50) under setting [1] is 0.092 µM [falling, full curve].
Take `COc1ccccc1CNC(=O)CSc1nc(-c2ccccc2)cn1N`: the cell number change is -4.21%. In addition, under setting [1], the AC50 was 0.58 µM [rising, single point].
Consider `CN(C)CCCNC(=O)c1ccc(-c2ccccc2)cc1`, for which the cell number change stood at 56.4%. Further, the AC50 under setting [2] was 0.0651 µM [falling, full curve, poor fit]. For the same compound, the AC50 under setting [1] was 0.082 µM [falling, full curve, poor fit].
Regarding `O=C1CCCN1CCC(=O)N1CCCC(Nc2ccc(F)cc2)C1` (centres undefined), the cell number change was determined as 17.6%. The AC50 under setting [1] is 6.51 µM [rising, partial curve, poor fit].
Turning to `CCc1nnc2n1N=C(c1ccc([N+](=O)[O-])cc1)CS2`, the cell number change is -23.8%. In addition, the AC50 under setting [1] was 18.4 µM [falling, single point].
Take `CC(C)Oc1ccc(CCc2nnc(SC(C)C(=O)O)n2-c2ccccc2)cc1` (centres undefined): the cell number change was -14%.
Regarding `O=C(Cc1ccccc1F)Nc1ccc(S(=O)(=O)N2CCCCC2)cc1`, the AC50 under setting [1] was 6.51 µM [falling, single point].
Regarding `Cc1cc(NC(=O)CCc2ccc(C)o2)no1`, the cell number change was -11.3%. Also, the AC50 under setting [1] was 23.1 µM [falling, single point].
In the case of `Cc1ccc(C)c(CN2CCC(CNC(=O)Nc3cccc(Cl)c3C)CC2)c1`, the AC50 under setting [1] was 1.84 µM [falling, partial curve, poor fit].
`CCOc1ccccc1C1C(C(=O)Nc2ccccc2OC)=C(C)Nc2nnnn21` (centres undefined): the cell number change came out at 10.8%. In addition, the AC50 under setting [1] is 9.2 µM [rising, partial curve].
For the compound `CCOc1ccc(C(C(=O)NCC2CCCO2)N(Cc2cccs2)C(=O)c2snc(C(N)=O)c2N)cc1` (centres undefined), the AC50 under setting [1] was 29.1 µM [falling, single point].
Take `O=C(O)Cn1c(CC(=O)N2CCCC2)nc2ccccc21`: the cell number change is -27.4%. In addition, the AC50 under setting [1] was 0.731 µM [falling, full curve, poor fit].
Regarding `O=C(c1cccc([N+](=O)[O-])c1)N1CCCN(C(=O)c2cccc([N+](=O)[O-])c2)CC1`, the cell number change is 14.1%. Further, the half-maximal activity concentration (AC50) under setting [1] is 1.03 µM [rising, partial curve, poor fit].
Turning to `CCS(=O)(=O)Nc1cc(C(=O)O)ccc1C`, the cell number change is -31.9%. The AC50 under setting [2] was 1.16 µM [falling, partial curve, poor fit].
`N#CC1=C(SCc2ccc(C#N)cc2)N=C(N)C(c2nc(-c3ccccc3)cs2)C12CCCCC2` (centres undefined): the AC50 under setting [1] was 3.66 µM [rising, single point].
For the compound `Cc1cc(C)c(S(=O)(=O)Nc2ccc(OCC(=O)O)cc2)c(C)c1`, the cell number change was -37.2%. Moreover, the AC50 under setting [2] was 0.13 µM [falling, full curve, poor fit]. The AC50 under setting [1] is 0.164 µM [falling, full curve, poor fit].
On to `CCOc1cccc2cc(-c3nnc(NCc4ccc5c(c4)OCO5)s3)c(=O)oc12`, for which the cell number change was -6.45%. The half-maximal activity concentration (AC50) under setting [2] was 3.66 µM [falling, single point]. Under setting [1], the AC50 was 6.51 µM [falling, single point].
`c1cnc(N2CCN(Cc3ccc4c(c3)OCO4)CC2)cn1`: the cell number change is 81.1%.
In the case of `COc1cccc(CN(C)C(=O)Cc2c[nH]c3ccccc23)c1OC`, the cell number change was -20.5%. In addition, the AC50 under setting [1] is 0.092 µM [falling, partial curve, poor fit].
With `CC1=C(C(=O)OCC2CCCO2)C(c2ccccc2)C2=C(CCCC2=O)N1` (centres undefined), the cell number change was -29%. In addition, under setting [1], the AC50 is 18.4 µM [falling, single point].
On to `CS(=O)(=O)c1ccc2nc(NC(=O)CN3CCCCCC3)sc2c1`, for which the cell number change came to 17.9%.
On to `CCOc1ccc(CNC(=O)C2CCN(S(=O)(=O)c3ccc4c(c3)CCCC(=O)N4)CC2)cc1`, for which the cell number change was 16.4%. The AC50 under setting [1] is 5.8 µM [rising, full curve].
For the compound `CCN1CCCC1CNC(=O)CSc1cc(=O)n(CC)c2ccccc12` (centres undefined), the cell number change was -0.593%. The AC50 under setting [2] is 0.651 µM [falling, single point]. Under setting [1], the AC50 was 0.731 µM [falling, single point].
With `O=C(COC(=O)C1CCCCC1)Nc1ccccc1OC(F)F`, the cell number change stood at 28.6%.
Consider `CC1=CC(C)(C)N(C(=O)c2ccc(F)cc2)c2cc3c(cc21)OCO3`, for which the cell number change was -39.4%. Also, the AC50 under setting [2] was 20.6 µM [falling, partial curve].
Consider `CCn1cc(C2=NC(c3ccccc3)CO2)c2ccccc21` (centres undefined), for which the cell number change is 7.13%. Further, under setting [1], the AC50 was 0.206 µM [rising, full curve, poor fit].
Turning to `CCc1ccccc1NC(=O)CCS(=O)(=O)c1ccc(C)cc1`, the cell number change was determined as 34.6%. The AC50 under setting [2] was 14.6 µM [rising, partial curve].
In the case of `O=C(CSc1ncnc2ccccc12)NCCc1ccccc1`, the cell number change was 64%. In addition, under setting [2], the AC50 is 29.1 µM [rising, single point]. Moreover, the AC50 under setting [1] is 29.1 µM [rising, single point].
For the compound `Cc1ccc(C(=O)NC(Cc2c[nH]c3ccccc23)C(=O)O)cc1` (centres undefined), the AC50 under setting [1] is 18.4 µM [falling, partial curve].
On to `COc1ccc(CCN=C(N)NS(=O)(=O)c2ccc(C)c(C)c2)cc1OC`, for which the cell number change is 23.2%. Besides, the AC50 under setting [1] was 2.24 µM [rising, partial curve].
In the case of `Cc1noc(C)c1COc1ccccc1C(=O)NNC(=O)C(C)Oc1ccccc1F` (centres undefined), the cell number change was determined as 131%. Besides, the AC50 under setting [2] is 4.11 µM [falling, single point]. Also, the AC50 under setting [1] is 29.1 µM [rising, single point].
Take `O=C(Cc1cn(-c2ccccc2)nc1-c1ccccc1)N1CCCCC1`: the cell number change was -7.89%. For the same compound, under setting [1], the AC50 is 6.31 µM [falling, single point].
Turning to `CCn1nc(C)c(CNC(=O)c2cc(COc3ccccc3SC)on2)c1C`, the cell number change was determined as 6.37%. Further, the concentration at half-maximal activity (AC50) under setting [2] was 3.66 µM [rising, single point]. For the same compound, the AC50 under setting [1] is 6.51 µM [rising, single point].
Turning to `COc1ccccc1C(=O)Nc1ccnn1C1CCN(CCCC2CCCC2)CC1`, the AC50 under setting [1] was 6.51 µM [falling, single point].
With `Fc1cccc(Cl)c1CSc1ncn[nH]1`, the cell number change is -21.7%.
`Cn1c2ccc(F)cc2c2nc3ccccc3nc21`: the cell number change is -29.9%. The half-maximal activity concentration (AC50) under setting [1] was 29.1 µM [falling, single point].
For `CS(=O)(=O)c1ccc(C(=O)Nc2ccc(N3CCCCC3)cc2)c(Cl)c1`, the cell number change is 70.9%. Further, the AC50 under setting [2] is 23.1 µM [rising, single point].
